Earlier results as cited in patent publication US20070243598A1, “NOVEL PSEUDONOCARDIA SP. RMRC PAH4 AND A PROCESS FOR BIOCONVERTING COMPACTIN INTO PRAVASTATIN USING THE SAME” (CHINESE PETROLEUM CORPORATION, priority 2004, published 2007).
For at least one compound, name, drawing or mass did not settle the structure.

Key:
[1] = Circulation 2001; 103(3):387-92; cited from earlier work
[2] = reported in Archives of Neurology 2000; 57: 1439-1443; preliminary observation; cited from earlier work

## CC[C@H](C)C(=O)O[C@H]1C[C@H](O)C=C2C=C[C@H](C)[C@H](CC[C@@H](O)C[C@@H](O)CC(=O)O)[C@H]21 [Pravastatin]
[1]
  reduction of the incidence of stroke: up to 22%
[2]
  decrease of the incidence of senile dementia: up to 73%
